Results published in the supplement of paper PMC3334620.
The full ranking holds about 33,000 sequences; the median of “E-score (-0.5 to 0.5)” is about -0.0014, and the highest 2% start at about 0.25. The list shows a part of the results.

Molecular target: T1, Cad1 (UniProt P24813)
T1 sequence: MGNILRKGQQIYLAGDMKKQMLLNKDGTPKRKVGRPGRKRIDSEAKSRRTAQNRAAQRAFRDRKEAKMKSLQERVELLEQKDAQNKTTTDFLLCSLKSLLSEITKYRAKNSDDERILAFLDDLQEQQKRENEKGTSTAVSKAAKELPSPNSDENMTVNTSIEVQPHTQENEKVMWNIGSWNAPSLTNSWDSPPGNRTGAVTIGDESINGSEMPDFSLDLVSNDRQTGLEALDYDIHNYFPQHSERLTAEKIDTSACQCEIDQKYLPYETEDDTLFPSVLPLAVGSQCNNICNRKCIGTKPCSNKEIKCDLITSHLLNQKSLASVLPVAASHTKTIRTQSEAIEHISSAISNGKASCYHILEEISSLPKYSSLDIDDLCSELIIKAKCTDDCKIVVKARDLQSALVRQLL
Experiment: PBM E-score (8-mer binding enrichment) (E-score (-0.5 to 0.5)); higher = stronger / more preferred TF binding
Conditions: protein concentration: 100 nM; construct: GST-full length
Outline: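 Universal all-10-mer Agilent arrays, fresh or stripped once, were converted to double-stranded form by primer extension. GST-tagged yeast transcription factors from PURExpress in vitro transcription/translation, full-length or DNA-binding domain only, were applied at about 100-200 nM and detected with fluorescent anti-GST. After masliner normalisation, the Universal PBM Analysis Suite scored each ungapped eight-base word together with its reverse complement by E-score.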

Going from ATCCTTCC to ATGGCTCG, the “PBM E-score” value rises from -0.304 to 0.0346.

Compared with CAGCATGC, GAAGCCAA is lower in “PBM E-score” value: 0.109 for the first, -0.183 for the second.

Going from AGAACTAC to CACCGCTG, the “PBM E-score” value falls from 0.0514 to -0.216.

First: GAATGCAC
Second: ACCCGCTC
The “PBM E-score” value of the first is higher: 0.0937 for the first, -0.392 for the second.

First: ATGGATCG
Second: GCTGCTCA
The “PBM E-score” value of the first is lower: -0.032 for the first, 0.0295 for the second.

First: CACAAGAG
Second: CGCAAAGA
The “PBM E-score” value of the first is higher: 0.0461 for the first, 0.0385 for the second.

First: ATTAATGC
Second: GCGGGGTA
The “PBM E-score” value of the first is higher: 0.167 for the first, -0.0356 for the second.

Compared with AGGATCAT, AATCGCCC is lower in “PBM E-score” value: -0.0896 for the first, -0.17 for the second.

Going from AGCCCGGG to AACTCGTG, the “PBM E-score” value rises from -0.199 to 0.0424.

Compared with AAACTGTT, CTGGACAC is lower in “PBM E-score” value: 0.11 for the first, -0.109 for the second.

Compared with AACATTCT, CAGAAGAA is lower in “PBM E-score” value: 0.122 for the first, -0.09 for the second.

Compared with AATCCAGA, ATGCGGCG is lower in “PBM E-score” value: 0.0334 for the first, 0.021 for the second.

First: GTCCTGAA
Second: CTATTCCA
The “PBM E-score” value of the first is lower: -0.0863 for the first, -0.0216 for the second.

Compared with TCGGACGA, ACTAAAAT is higher in “PBM E-score” value: 0.15 for the first, 0.255 for the second.

Going from AGCAACTG to CGGTCATA, the “PBM E-score” value rises from 0.0384 to 0.0524.

Going from AAGCACGT to TAGCAAGA, the “PBM E-score” value falls from 0.188 to 0.0627.

First: ATTTGGAC
Second: GCTACTAC
The “PBM E-score” value of the first is lower: 0.181 for the first, 0.212 for the second.

Going from CCGCGACA to ATTACCCC, the “PBM E-score” value falls from 0.197 to -0.00399.

Going from GCAATCAA to GGTGAGGA, the “PBM E-score” value falls from 0.148 to -0.0557.

Compared with TACAATGA, CTAAATAA is higher in “PBM E-score” value: -0.0149 for the first, 0.103 for the second.

Compared with GACTTTGC, GACGGATC is higher in “PBM E-score” value: 0.0688 for the first, 0.151 for the second.

Compared with AATACGTG, AGTATCTC is higher in “PBM E-score” value: 0.0629 for the first, 0.178 for the second.

Compared with AAAACATA, GCTTTAAC is lower in “PBM E-score” value: 0.0652 for the first, 0.0263 for the second.

Compared with ATAAATTG, ATTGATTG is lower in “PBM E-score” value: 0.253 for the first, 0.133 for the second.

First: AAAACGTA
Second: CGTTCACC
The “PBM E-score” value of the first is lower: -0.104 for the first, 0.00274 for the second.

Compared with CCATTCCC, CGTGAACG is higher in “PBM E-score” value: -0.171 for the first, -0.074 for the second.

First: CTAGGATA
Second: ACGCTATG
The “PBM E-score” value of the first is lower: -0.131 for the first, -0.00184 for the second.

Going from GGACCCAA to GCTATTCA, the “PBM E-score” value rises from -0.0488 to -0.0289.

First: TAACCGTA
Second: AGTCCGGG
The “PBM E-score” value of the first is higher: -0.0512 for the first, -0.133 for the second.

First: CTGCCTAC
Second: CGTCGCCA
The “PBM E-score” value of the first is lower: 0.0761 for the first, 0.156 for the second.

Compared with ATCCAGGG, CGGGTGAA is higher in “PBM E-score” value: -0.173 for the first, -0.0261 for the second.

Going from GGCCGGAC to GCCAGCTA, the “PBM E-score” value rises from -0.143 to -0.0513.

Going from GAGAGAAA to CCCGCGCG, the “PBM E-score” value rises from 0.14 to 0.298.

First: TATAACCA
Second: CTAAAGTC
The “PBM E-score” value of the first is higher: 0.0891 for the first, -0.0975 for the second.

First: CCTGGAGC
Second: ACTATTAC
The “PBM E-score” value of the first is lower: -0.0969 for the first, 0.149 for the second.

Going from CATAGGCC to CTACATAA, the “PBM E-score” value falls from -0.0621 to -0.0789.

Compared with GTTGCAAC, ACGGCCGG is lower in “PBM E-score” value: 0.0901 for the first, -0.0115 for the second.

Compared with AATCTTGC, TAAGCGAA is lower in “PBM E-score” value: 0.176 for the first, 0.148 for the second.

Going from ACATTTGA to AAGAAACC, the “PBM E-score” value falls from 0.0757 to -0.053.

Compared with TGACATCA, ACACGTTC is lower in “PBM E-score” value: 0.186 for the first, 0.129 for the second.

First: ACCATCGA
Second: GTCAGCAA
The “PBM E-score” value of the first is lower: 0.104 for the first, 0.295 for the second.

Going from AGCCATTA to AATGCCGG, the “PBM E-score” value falls from 0.0718 to 0.0256.

Going from TAATTAGA to GCGATCAC, the “PBM E-score” value falls from 0.219 to 0.0333.
